Values joined by “and” are separate entries in the source; they are usually repeats but may differ in a detail not shown here. Identical values can stand only once. Among all 580,000 compounds or so, about 6,100 (1.1%) were called active. Inconclusive results, whose numbers are uncertain, are shown with a selection of clear calls. Calls follow the shape of the dose curve; as a rule, active = well fitted inhibition curve with a large enough effect; inconclusive = small, poorly fitted or top-dose-only effect, or another doubt; inactive = no such curve, though single readings can be large or run the other way. A potency beside an inconclusive call is a rough fit, not a confirmed value. Numbered stars: 1 amine (or outer) side, 2 acyl side, 3 side chain; on linkers, the order of the positions; unused ones are H or OH. Bridge positions count the residues as written; N and C are the ends. Square brackets hold non-standard residues; d marks the D form. Peptide text beside a SMILES is read from it. * marks the point of attachment. X4 = O=C([C@H](CCCCc1ccc(O)cc1)N[*:1])[*:2]; Tigloyl = C/C=C(\C)C(=O)*; Dhb = C/C=C(\N)C(=O)O
Biological target: Polyunsaturated fatty acid lipoxygenase ALOX12 (Homo sapiens) (UniProt P18054)
Experiment: Primary qHTS assay for inhibitors of human arachidonate 12S-lipoxygenase (ALOX12): Round 2
Conditions: purified 12hLO, xylenol orange hydroperoxide absorbance; activity change, negative = inhibition: at 108 µM (top of the series) unless noted
Procedure, shortened: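 Purified human 12hLO (150 nM final) in 25 mM Hepes, 0.01% Triton X-100, pH 7.0 was preincubated 15 min at room temperature with compound. Then 40 uM arachidonic acid was added, 30 min. Hydroperoxide was read by Fe-XO absorbance ratio 573/405 nm.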
% is scaled to controls: 0 for no effect and ±100 for the full control effect; potency is read from the fitted curve at half-maximal effect.

By UniProt entry, the sequences of proteins in these tests, tags left out. Where a name states a change or a piece, a line headed by the entry shows the natural chain unless it says otherwise.
UniProt P18054: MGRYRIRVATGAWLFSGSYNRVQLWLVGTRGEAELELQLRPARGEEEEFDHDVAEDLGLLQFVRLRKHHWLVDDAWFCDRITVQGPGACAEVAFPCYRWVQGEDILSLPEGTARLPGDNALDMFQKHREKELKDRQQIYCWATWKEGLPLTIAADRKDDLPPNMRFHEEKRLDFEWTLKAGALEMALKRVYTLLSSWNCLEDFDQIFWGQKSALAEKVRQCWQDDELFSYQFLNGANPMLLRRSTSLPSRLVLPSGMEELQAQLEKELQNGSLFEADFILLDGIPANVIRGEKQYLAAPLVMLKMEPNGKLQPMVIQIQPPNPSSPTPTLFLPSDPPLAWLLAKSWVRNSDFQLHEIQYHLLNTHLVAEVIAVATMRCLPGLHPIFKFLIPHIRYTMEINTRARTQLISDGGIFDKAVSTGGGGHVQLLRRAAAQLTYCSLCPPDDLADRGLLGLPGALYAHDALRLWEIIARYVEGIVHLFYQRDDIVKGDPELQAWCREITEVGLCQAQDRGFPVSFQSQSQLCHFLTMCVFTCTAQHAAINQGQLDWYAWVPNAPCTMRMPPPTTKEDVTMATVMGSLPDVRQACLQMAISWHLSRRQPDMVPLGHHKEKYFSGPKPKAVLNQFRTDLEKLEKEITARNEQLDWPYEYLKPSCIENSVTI

| SMILES | Potency | activity change, negative = inhibition |
| --- | --- | --- |
| Cc1ccccc1CN1C(=O)c2ccccc2C1c1nnnn1Cc1ccccc1 (stereo not drawn) | inconclusive: 35.5 µM [inhibitor, partial curve, poor fit] | – |
| COc1ccc(NC(=O)c2c(NC(=O)CCC(=O)O)sc(-c3ccccc3)c2C)cc1 | inconclusive: 44.7 µM [inhibitor, partial curve, poor fit] | – |
| O=C(COc1ccc2c3c(c(=O)oc2c1)CCC3)N1CCN(c2ccc(F)cc2)CC1 | – | inactive: 20.6% |
| COCCNCCCOc1ccc(C)cc1Br | inconclusive: 15.8 µM [inhibitor, full curve] | – |
| CCOc1cccc(C(=O)Nc2cc(-c3ccc(C)cc3)no2)c1 | inconclusive: 63.1 µM [inhibitor, partial curve, poor fit] | – |
| CCCCCCOc1ccc(C2C(=O)N(C3CCCCC3)CC(=O)N2CCCC)cc1 (stereo not drawn) | inconclusive: 35.5 µM [inhibitor, partial curve, poor fit] | – |
| COc1ccc(OC)c(CNC(=O)c2c(-c3ccc(C)cc3)nnc3ccccc23)c1 | – | inactive: 37.8% |
| O=C1c2ccccc2NC(c2cn[nH]c2-c2ccc(Cl)cc2)N1O (stereo not drawn) | – | inactive: -2.29% |
| C=CCN=C1NC(c2cccc(F)c2)C(C(=O)OC)=C(C)N1Cc1cccc(C(F)(F)F)c1 (stereo not drawn) | inconclusive: 79.4 µM [inhibitor, partial curve, poor fit] | – |
| O=C(NCCCn1ccnc1)c1cccc(Br)c1 | – | inactive: 8.38% |
| CCCCN1C(C(=O)c2ccccc2)=C(OC(C)=O)c2ccccc2S1(=O)=O | inconclusive: 44.7 µM [inhibitor, partial curve, poor fit] | – |
| Cc1ccc(-c2nc(Nc3cccc(C)c3)sc2CC(=O)O)cc1 | inconclusive: 100 µM [inhibitor, single point] | – |
| O=C(CN1CCN(c2ccccc2F)CC1)c1ccc(O)c(O)c1 | inconclusive: 12.6 µM [inhibitor, full curve] | – |
| O=C(Nc1sc2c(c1C(=O)N1CCCCC1)CCCC2)c1ccccc1Cl | – | inactive: -33.8% |
| COc1cccc2c(=S)c(CCC(C)=O)c(C)[nH]c12 | inconclusive: 5.62 µM [inhibitor, full curve, poor fit] | – |
| CN(Cc1ccccc1)Cc1cn(C[C@H]2O[C@@H](CC(=O)N3CCCC3)[C@H](O)[C@@H]2O)nn1 | inconclusive: 25.1 µM [inhibitor, full curve] | – |
| CCCn1c(N2CCN(C(=O)N3CCCCC3)CC2)nc2ccccc21 | inconclusive: 35.5 µM [inhibitor, partial curve, poor fit] | – |
| COc1cccc(CNC(=S)Nc2ccc3c(c2)c(=O)n(C)n3Cc2csc(C)n2)c1 | inconclusive: 31.6 µM [inhibitor, partial curve, poor fit] | – |
| CC1CCC2(CC1)NC(=O)N(NC(=O)CSc1ncnc3ccccc13)C2=O (stereo not drawn) | – | inactive: -6.91% |
| COc1ccc(/C=C2\Oc3c(ccc(OS(C)(=O)=O)c3C)C2=O)cc1 | inconclusive: 56.2 µM [inhibitor, partial curve, poor fit] | – |
| CCC1(C)COC(c2ccc(OC)c(OC)c2)OC1 (stereo not drawn) | – | inactive: -2.84% |

| SMILES | Potency | activity change, negative = inhibition |
| --- | --- | --- |
| O=C(NCc1cccc(F)c1)C1=NO[C@@H]2CN(Cc3ccc(F)cc3)C[C@H]12 | – | inactive: -0.562% [at 176 µM] |
| O=C1c2ccccc2C(=O)N1SC1CCCCC1 | active: 15.8 µM | – |
| CCOc1ccc(CCN2C(=S)N([C@@H](CC(C)C)CN3CCC[C@@H]3CN3C(=S)NC[C@@H]3Cc3ccc(O)cc3)C[C@@H]2Cc2ccc(O)cc2)cc1 | inconclusive: 50.1 µM [inhibitor, partial curve, poor fit] | – |
| Cc1ccc(S(=O)(=O)NC(C)(C)CSc2nnc(N)s2)cc1 | inconclusive: 100 µM [inhibitor, single point] | – |
| Cc1ccccc1C(=O)NC1CCN(CC(=O)Nc2nccs2)CC1 | inconclusive: 79.4 µM [inhibitor, single point] | – |
| Cc1cc(NS(=O)(=O)c2ccccc2)cc(Cl)c1O | inconclusive: 39.8 µM [inhibitor, partial curve, poor fit] | – |
| COc1ccc(C(=O)NC(=S)NCc2ccco2)cc1Br | active: 22.4 µM | – |
| CC(C)Cn1nc(C(=O)N2CCC(C(=O)Nc3ccc4c(c3)OCO4)CC2)c2ccccc2c1=O | – | inactive: 9.28% |
| CCCc1noc(-c2cn(C3CCN(C(=O)Cc4cccc(F)c4)CC3)nn2)n1 | – | inactive: 5.7% |
| O=C(NC(=S)Nc1ccccc1N1CCOCC1)c1ccc(-c2ccccc2F)o1 | active: 25.1 µM | – |
| O=C(Nc1nccs1)c1cnccn1 | – | inactive: 3.98% |
| CN(C)C(=O)c1cccc(NC(=O)/C=C/c2ccccc2)c1 | inconclusive: 56.2 µM [inhibitor, partial curve, poor fit] | – |
| COc1cccc(NC(=O)C2CCCN(C(=O)c3ccc(OC)c4ccccc34)C2)c1 (stereo not drawn) | – | inactive: -5.56% |
| Cc1c(C(=O)NCc2ccco2)sc2nc(-c3ccccc3)cn12 | – | inactive: -4.44% |
| Cc1ccc(S(=O)(=O)N2CCN(C(=O)COC(=O)c3ccc(Br)o3)CC2)c(C)c1 | – | inactive: -18.1% |
| COc1cc(-c2nc3ccc(C)cn3c2NCc2ccccc2)ccc1SC1CCCCC1 | inconclusive: 44.7 µM [inhibitor, partial curve, poor fit] | – |
| CC(C)c1ccccc1NC(=O)c1ccccc1NC(=O)C1CCCCC1 | – | inactive: -4.75% |
| O=C(NCCc1cccnc1)C1CCC(=O)N(Cc2cccc(C(F)(F)F)c2)C1 (stereo not drawn) | inconclusive: 0.398 µM [inhibitor, full curve, poor fit] | – |
| CCCc1cc(-c2ccc(O)c(OCC)c2)c(C#N)c(N)n1 | inconclusive: 63.1 µM [inhibitor, partial curve, poor fit] | – |
| O=S(=O)(c1ccc(=S)[nH]c1)N1CCCCC1 | – | inactive: 99.4% |
| CN(C)CCCC(=O)N1CCC2(CC1)CN([S+](C)(=O)[O-])Cc1ccccc1O2 | inconclusive: 25.1 µM [inhibitor, full curve, poor fit] | – |

| SMILES | Potency | activity change, negative = inhibition |
| --- | --- | --- |
| Cn1c(=O)[nH]c2cc(-c3noc(-c4cccc(Cl)c4)n3)ccc21 | – | inactive: -8.42% |
| Cc1ccc(NCC(=O)N/N=C\c2cccc(O)c2)cc1 | inconclusive: 79.4 µM [inhibitor, partial curve, poor fit] | – |
| COc1cc(-c2cc(C(=O)Nc3cc(S(=O)(=O)N4CCOCC4)ccc3O)c3ccccc3n2)cc(OC)c1OC | inconclusive: 100 µM [inhibitor, partial curve, poor fit] | – |
| CCC(=O)N1N=C(c2ccc(NS(C)(=O)=O)cc2)CC1c1ccc(N(C)C)cc1 (stereo not drawn) | – | inactive: 18.9% |
| COc1cc(C=c2c3ccccc3n3c2cc(-c2ccccc2)[n+]3C)cc(OC)c1OC | inconclusive: 39.8 µM [inhibitor, partial curve, poor fit] | – |
| Cc1cc(OCCOCCN2CCCC2)ccc1C(C)C | inconclusive: 1.58 µM [inhibitor, full curve, poor fit] | – |
| O=C(Cn1nc(-c2ccccc2)c2ccccc2c1=O)Nc1ccc(F)cc1 | inconclusive: 50.1 µM [inhibitor, single point] | – |
| CC1Cn2c(nc3sc4c(c3c2=O)CCC4)N1CCO (stereo not drawn) | inconclusive: 89.1 µM [inhibitor, single point] | – |
| CCCCCCn1c(O)c(/C=C2\C=NN=C2c2ccccc2)sc1=S | inconclusive: 20 µM [inhibitor, partial curve, poor fit] | – |
| COc1cccc(S(=O)(=O)Nc2ccc3c(c2)[C@@H]2C[C@H](CC(=O)NCCc4ccccc4)O[C@H](CO)[C@@H]2O3)c1 | inconclusive: 50.1 µM [inhibitor, partial curve, poor fit] | – |
| O=C(OCc1cn([C@H]2CN(C(=O)c3cccs3)[C@@H](c3ccccc3)C[C@@H]2O)nn1)c1ccccc1 | inconclusive: 56.2 µM [inhibitor, partial curve, poor fit] | – |
| COCCN1C(=O)CS(=O)(=O)C12CCN(C(=O)c1ccc(C)cc1C)CC2 | – | inactive: 34.6% |
| Cc1c(/C(O)=C2/C(=O)C(=O)N(Cc3cccnc3)C2c2ccccn2)cnn1-c1ccccc1 (stereo not drawn) | inconclusive: 2.82 µM [inhibitor, full curve, poor fit] | – |
| S=C(NCc1ccccc1)NCC1COc2ccccc2O1 (stereo not drawn) | inconclusive: 89.1 µM [inhibitor, partial curve, poor fit] | – |
| COc1ccc2cc(C(=O)N3CCc4n[nH]c(=O)n4CC3)[nH]c2c1 | – | inactive: 40.6% |
| COc1ccc(S(=O)(=O)n2nc(OC(=O)c3ccco3)cc2N)cc1 | – | inactive: 0.87% |
| CSCC(=O)N[C@H]1CCN2C(=O)c3cc(-c4cccc(C)c4C)ccc3NC(=O)[C@H]12 | inconclusive: 79.4 µM [inhibitor, partial curve] | – |
| C/C=C1\NC(=O)[C@H](C)NC(=O)[C@@H](NC(=O)[C@@H](Cc2ccc(O)cc2)NC(=O)[C@@H](NC(=O)/C(C)=C/C)C(C)C)[C@@H](C)OC(=O)[C@H](CCCCc2ccc(O)cc2)NC(=O)[C@@H](CCC(=O)OC)NC1=O (Tigloyl-V[dY]TA[Dhb][dE](OMe)[X4]; ester 3-C) | inconclusive: 39.8 µM [inhibitor, partial curve, poor fit] | – |
| COC(=O)[C@@H]1[C@@H]2C[C@H]3c4[nH]c5ccccc5c4CCN3C[C@@H]2CC[C@@H]1O | inconclusive: 22.4 µM [inhibitor, single point] and inconclusive: 28.2 µM [inhibitor, partial curve, poor fit] | – |
| CCN(c1ccccc1)S(=O)(=O)c1ccc(Cl)c(NC(=O)CN2CCN(C)CC2)c1 | inconclusive: 100 µM [inhibitor, partial curve, poor fit] | – |
| CCOC(=O)C1CCN(C(=O)Nc2cc(Cl)cc(Cl)c2)CC1 | inconclusive: 35.5 µM [inhibitor, partial curve, poor fit] | – |

Source: PubChem BioAssay AID1671190 (National Center for Advancing Translational Sciences (NCATS), 2021)
